{
  "source": "patent US7067520B2",
  "about": "“Preventive or therapeutic medicines for diabetes containing fused-heterocyclic compounds or their salts” (Ishihara Sangyo Kaisha, Ltd., priority 2000, dated 2006)",
  "tested_on": "L6 cells",
  "experiment": "Glucose uptake test by L6 cells",
  "format": "cell-based, rat",
  "conditions": "treatment concentration 10 μg/ml, 1 hour; 2-deoxy-[3H]-glucose uptake, control (MEM solvent alone) = 100%",
  "procedure": "Glucose Uptake Test by L6 Cells\nEach of compounds under test was applied to L6 cells (rat cells originally derived from skeletal muscles) by the following method to measure the stimulating effect on glucose uptake. Namely, L6 cells were suspended in α-minimum essential medium (hereinafter referred to simply as MEM) containing 10% fetal bovine serum (hereinafter referred to simply as FBS), and inoculated into a 96-well plastic plate in an amount of 5×10^4 cells/well and cultivated in an incubator (5% carbon dioxide gas, 37° C.) until the cells grew all over the well. Then, the culture medium was switched to MEM solution containing 2% BS, followed by cultivation further for from 7 to 10 ays (the culture medium was exchanged every three days) to differentiate the cells into skeletal muscle cells. […] The treatment solution was removed, the cells were washed with the KHR buffer solution, then the cells were dissolved in a 1N sodium hydroxide solution in an appropriate amount, and the [^3H] radio activity was measured by means of a liquid scintillation counter (cpm) The percentage of the glucose uptake was represented by the percentage of radio activity when the compound under test was applied, taking the radio activity of the control (the MEM solvent alone was applied) as 100%. […]",
  "note": "Some entries share one result that the patent states for a list of compounds.",
  "data": [
    {"smiles": "COC(=O)c1c(SC)nc2ccnn2c1NCc1ccccc1", "note": "[compound 121]", "values": [
      {"measurement": "Ratio activity (%)", "value": ">115", "unit": "%"}
    ]}
  ]
}
